Data published in publication PMC3585223.
The exact form of at least one protein or probe is not confirmed. No signal at the amounts used counts as a negative.

Legend:
[1] = molecular target: MBP-AaERF1 (Artemisia annua) (UniProt G8GKQ7); assay: EMSA; settings: EMSA per protocol of Zhang et al. [45]; pH and temperature not given; recombinant protein; residues 1-253; protein details: N-terminal MBP (pMAL-C2); label: 3' biotin
[2] = tested on: MBP; assay: EMSA; settings: EMSA per protocol of Zhang et al. [45]; pH and temperature not given; recombinant protein; label: 3' biotin

| Sequence | binding result [1] | binding result [2] |
| --- | --- | --- |
| CATAAGATCCTCCACT (double strand) [mGCC box probe] | no binding | – |
| CATAAGAGCCGCCACT (double strand) [GCC box probe] | binds | no binding |
